In patent US20130130379A1 (published 2013):
Results are given in words; binding and its absence hold for the method and conditions named. Some results given as binding are weak or reduced against the parent protein; the word gives no strength.

Assays:
Human CXCR4 [1] = target: T1, Human CXCR4 (human, UniProt P61073-2 2-356); experiment: shotgun mutagenesis epitope mapping
T1 construct: also called hCXCR4

Human CXCR4 [2] = target: T1, Human CXCR4; experiment: epitope mapping shown on a snake plot of human CXCR4

- binding (Human CXCR4 [2]): binds
B1: 238D4 (VHH)
VHH: EVQLMESGGGLVQAGGSLRLSCAASGRTFNNYAMGWFRRAPGKEREFVAAITRSGVRSGVSAIYGDSVKDRFTISRDNAKNTLYLQMNSLKPEDTAVYTCAASAIGSGALRRFEYDYSGQGTQVTVSS
- binding (Human CXCR4 [1]): binds
